One may read the AC50 as the concentration giving half of the maximal activity seen.

This is an account of results in PubChem BioAssay AID1487 (National Center for Advancing Translational Sciences (NCATS), 2009).

SMILES strings stand for the structures. The list shows a part of the results. Shown are side measurements of this screen, not its main read-out; they come without a call. Compounds called inactive in the main read-out are mostly missing here. The note in brackets gives the kind of curve behind each potency; many fits are weak.

The test is described as follows: qHTS Assay for Modulators of Lamin A Splicing. To be noted: HeLa LMNA splicing GFP/RFP minigene ratio, 48 h. In a few lines: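 S3 HeLa stable clones carrying a lamin A-EGFP splicing minigene plus DsRed2 were seeded at 600 cells/well in Opti-MEM with 2% FBS, pin-dosed and incubated 48 h at 37°C. Acumen cytometry (488 nm) gave the GFP/RFP total-intensity ratio.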
For orientation: qHTS replaces the single test concentration by a dilution series.

The mark [1] stands for this setting: measured here: GFP splicing reporter channel.
The mark [2] stands for this setting: measured here: RFP viability control channel.

On to `O=C(c1ccc(Cl)c(Cl)c1)N1CCC(=O)N(C(COCc2cccc(C(F)(F)F)c2)Cc2ccccc2)CC1` (centres undefined), for which the AC50 under setting [1] was 0.0891 µM [falling, full curve].

For `Cc1csc(NC(=O)c2ccc(S(=O)(=O)N(C)c3ccccc3)cc2)n1`, under setting [2], the AC50 is 10 µM [rising, partial curve].

On to `O=C(CCCC1=NS(=O)(=O)c2ccccc2N1)N1CCN(c2ccc(Cl)cc2)CC1`, for which, under setting [2], the AC50 was 6.31 µM [rising, full curve, poor fit].

`CC1CN(C(=O)N2c3ccccc3Sc3ccccc32)CC(C)O1` (centres undefined): the half-maximal activity concentration (AC50) under setting [1] is 35.5 µM [falling, partial curve].

In the case of `O=C(Nc1nc2ccccc2[nH]1)c1ccccc1F`, the AC50 under setting [2] was 35.5 µM [falling, single point].

Regarding `CC(=O)Nc1cc(ON=C(C)C)cc([N+](=O)[O-])c1`, the AC50 under setting [1] was 35.5 µM [rising, single point] and the AC50 under setting [2] is 25.1 µM [rising, single point].

For the compound `Cc1cc(-n2c(C)cc(C(=S)N3CCOCC3)c2C)ccc1Br`, the AC50 was 25.1 µM [rising, single point] under setting [1] and 25.1 µM [rising, single point] under setting [2].

On to `Cc1cc(Nc2cccc(C(F)(F)F)c2)nc2ccc(NC(=O)c3cccnc3)cc12`, for which the AC50 by setting is: under setting [1], 31.6 µM [falling, single point]; under setting [2], 28.2 µM [falling, single point].

Turning to `Cc1ccc(OCC(O)Cn2c(=N)n(Cc3ccccc3)c3ccccc32)cc1` (centres undefined), under setting [2], the AC50 was 31.6 µM [rising, single point].

Take `Cc1ccccc1-n1c(SCc2cc(=O)n3ccccc3n2)nc2[nH]ncc2c1=O`: the AC50 under setting [2] is 8.91 µM [rising, partial curve].

Regarding `CC(C)C1O/C(=N/C(=O)Nc2ccc(Cl)c(Cl)c2)NC1=O` (centres undefined), the AC50 was 20 µM [rising, single point] under setting [1] and 35.5 µM [rising, single point] under setting [2].

Consider `CCCCCC(=O)Nc1ccc(-c2csc(C)n2)cc1`, for which the AC50 is, setting by setting: under setting [1], 7.08 µM [rising, partial curve, poor fit]; under setting [2], 22.4 µM [rising, single point].

In the case of `O=S(=O)(Nc1cccc(-c2ccc(N3CCCC3)nn2)c1)c1cc(F)ccc1F`, the AC50 by setting is: under setting [1], 5.01 µM [falling, full curve]; under setting [2], 5.01 µM [falling, partial curve].

With `CC(C)(C)NS(=O)(=O)c1cccc(S(=O)(=O)c2cccc(S(=O)(=O)NC(C)(C)C)c2)c1`, under setting [2], the AC50 is 0.00891 µM [falling, full curve, poor fit].

With `Cc1cc2c(cc1C)NC(c1c(C)n(C)n(-c3ccccc3)c1=O)C1=C(CC(C)(C)CC1=O)N2` (centres undefined), the AC50 under setting [2] was 31.6 µM [rising, single point].

With `O=C(COC(=O)c1cc(=O)c2ccccc2o1)NC1CCCCC1`, the AC50 under setting [1] was 0.00794 µM [rising, full curve, poor fit].

Turning to `Cc1[nH]n(-c2ccccc2)c(=O)c1C(=O)c1ccc([N+](=O)[O-])cc1`, the AC50 is 35.5 µM [falling, single point] under setting [1] and 11.2 µM [falling, partial curve, poor fit] under setting [2].

As for `CCOC(=O)N1CCN(Cc2nc3cc(NC(=O)c4ccc([N+](=O)[O-])cc4)ccc3n2C(C)C)CC1`, the AC50 under setting [2] is 3.55 µM [rising, full curve].

For `Cc1nc(N2CCN(C(=O)COc3ccccc3)CC2)c2c(C)c(C)sc2n1`, the AC50 under setting [2] is 5.01 µM [rising, partial curve].

Take `COc1ccc(C2CC(=O)Nc3sc(=N)c4c(N)c(C#N)c(N)nc4c32)cc1OC` (centres undefined): the AC50 under setting [1] was 11.2 µM [rising, single point].

For `CC1CC(C)CN(c2ccc(-n3cnnn3)cc2[N+](=O)[O-])C1` (centres undefined), the half-maximal activity concentration (AC50) under setting [1] was 35.5 µM [falling, single point] and the AC50 under setting [2] was 15.8 µM [falling, single point].

With `CCCCCCOc1ccc(/C(N)=N/O)cc1`, the AC50 was 15.8 µM [rising, partial curve] under setting [1] and 12.6 µM [rising, partial curve] under setting [2].

Take `O=C(CN1CCN(c2cccc(Cl)n2)CC1)N1CC(O)CO1` (centres undefined): under setting [1], the AC50 is 0.00501 µM [rising, full curve, poor fit].

On to `O=C(O)CCCCC1CCSS1` (centres undefined), for which the AC50 runs as follows: under setting [1], 35.5 µM [falling, single point]; under setting [2], 35.5 µM [falling, single point].

Turning to `COCC(=O)O[C@]1(CCN(C)CCCc2nc3ccccc3[nH]2)CCc2cc(F)ccc2[C@@H]1C(C)C`, the AC50 under setting [1] is 17.8 µM [falling, partial curve] and the AC50 under setting [2] is 15.8 µM [falling, partial curve].

In the case of `COc1cc(/C=N/NC(=O)c2ccc(N(C)S(=O)(=O)c3ccccc3)cc2)cc(OC)c1OC`, the AC50 under setting [2] is 35.5 µM [rising, single point].

On to `COc1ccccc1OCCCn1c(C)c(C#N)c2ccccc21`, for which the AC50 under setting [1] is 35.5 µM [rising, single point] and the AC50 under setting [2] was 35.5 µM [rising, single point].

For `O=C(NCc1cccnc1)C1CCN(Cc2cc3ccccc3n2Cc2ccccc2)CC1`, the AC50 is, setting by setting: under setting [1], 22.4 µM [falling, single point]; under setting [2], 35.5 µM [falling, single point].

Take `CCN(CC)Cc1cc(Nc2ccnc3cc(Cl)ccc23)ccc1O`: the AC50 is, setting by setting: under setting [1], 0.002 µM [falling, full curve, poor fit]; under setting [2], 0.1 µM [rising, full curve, poor fit].

In the case of `O=C(COc1ccccc1)N1CCN(S(=O)(=O)Cc2ccccc2)CC1`, the AC50 reads like this: under setting [1], 17.8 µM [rising, partial curve]; under setting [2], 0.00891 µM [rising, full curve, poor fit].

As for `Cc1oc2c(c(=O)c1C)C(=O)CC(c1ccccc1)C2` (centres undefined), under setting [2], the AC50 was 0.0178 µM [rising, single point].

Take `Cc1cc(C(F)F)n2nc(C(=O)Nc3sc4c(c3C(N)=O)CCC4)nc2n1`: the half-maximal activity concentration (AC50) under setting [2] was 1.12 µM [rising, partial curve].

On to `CC(C)c1ccc(NC(=O)CN2C=NS(=O)(=O)c3ccccc32)cc1`, for which the AC50 under setting [2] is 0.501 µM [falling, full curve].

Take `COc1ccc(OC)c(C(=O)C2COC(=O)C2)c1` (centres undefined): under setting [2], the AC50 is 11.2 µM [rising, partial curve].
